{"source": "PubChem BioAssay AID2417", "about": "(National Center for Advancing Translational Sciences (NCATS), 2010)", "note": "Hit rate of the full screen: of about 140,000 compounds, about 4,300 (3.1%) were called active. Inconclusive means that the source gave no clear call. Such entries were picked first, then a sample of the others.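 The calls were made as follows: active = readout at or below -70, meaning at least 70% loss of cells showing the perinucleolar compartment, a nuclear body marking cancer cells; inconclusive = readout between -30 and a set limit; inactive = the rest.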", "data": [{"assay": "High Content Assay for Compounds that inhibit the Assembly of the Perinucleolar Compartment;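 also: plate controls were DMSO wells for no effect and camptothecin positive control wells for full effect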", "details": "PC3M PTB-GFP, PNC prevalence imaging, 16 h; at 10 µM; hits give low values", "summary_of_the_method": "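PC3M cells stably expressing PTB-GFP, 750–1000 cells/well, treated 16 h at 37 °C with compound (23 nl of library stock), in duplicate. After paraformaldehyde fixation and Hoechst stain, imaged at 20x; PNC prevalence scored by image analysis.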", "values": [{"compound": "O=C(NCCSCc1ccccc1)c1cc(S(=O)(=O)N2CCOCC2)ccc1F", "activity change (PNC), negative = inhibition": "inconclusive: -54.8%"}, {"compound": "N#CC1=C(N)N(c2ccc(F)cc2)C(=O)C1", "activity change (PNC), negative = inhibition": "inconclusive: -33.7%"}, {"compound": "CCC(=O)NC(Nc1nc(C)cs1)(C(=O)OC)C(F)(F)F", "note": "(stereo not drawn)", "activity change (PNC), negative = inhibition": "inconclusive: -47.9%"}, {"compound": "O=C(c1cccc(F)c1)N1CCN=C1SCc1cccnc1", "activity change (PNC), negative = inhibition": "inconclusive: -51.4%"}, {"compound": "CC1=C(C(=O)N2CCOCC2)C(c2ccccc2F)C2=C(CCCC2=O)N1", "note": "(stereo not drawn)", "activity change (PNC), negative = inhibition": "inconclusive: -43.4%"}, {"compound": "c1cncc(-c2noc(-c3cccc4ccccc34)n2)c1", "activity change (PNC), negative = inhibition": "inactive: -14.6%"}, {"compound": "O=C(/C=C/c1ccc(S(=O)(=O)N2CCOCC2)cc1)NC(=S)Nc1ccc(N2CCOCC2)cc1", "activity change (PNC), negative = inhibition": "inconclusive: -40.8%"}, {"compound": "CC(=O)N1CCCc2cc(S(=O)(=O)N3CCN(C4CCCCC4)CC3)ccc21", "activity change (PNC), negative = inhibition": "inconclusive: -44.7%"}, {"compound": "O=C(CSCC(=O)NC1CC1)Nc1ccccc1", "activity change (PNC), negative = inhibition": "inconclusive: -65%"}, {"compound": "O=C(CNC(=O)c1ccco1)OCC(=O)c1cccc2ccccc12", "activity change (PNC), negative = inhibition": "inactive: 26.4%"}, {"compound": "Nc1nonc1NC(=O)CSc1ncccc1C(=O)O", "activity change (PNC), negative = inhibition": "active: -83.6%"}, {"compound": "Cc1noc(-c2ccccc2OC(=O)c2ccccc2)n1", "activity change (PNC), negative = inhibition": "inconclusive: -72.1%"}, {"compound": "COc1cccc(OCC(O)CN2C(C)CCCC2C)c1", "note": "(stereo not drawn)", "activity change (PNC), negative = inhibition": "inconclusive: -56.9%"}, {"compound": "Cc1ccc(-c2nc(SCC(N)=O)c(C#N)c3c2CCCC3)cc1", "activity change (PNC), negative = inhibition": "inconclusive: -39.4%"}, {"compound": "CSCCC(C(=O)N1CC2(C)CC1CC(C)(C)C2)N1C(=O)c2ccccc2C1=O", "note": "(stereo not drawn)", "activity change (PNC), negative = inhibition": "inconclusive: -57%"}, {"compound": "CCOC(=O)c1cnc(-n2nc(C)cc2C)nc1Nc1ccc(OC)cc1", "activity change (PNC), negative = inhibition": "inactive: 5.91%"}, {"compound": "Cc1ccc(-c2nc(N)s[n+]2-c2ccccc2)cc1", "activity change (PNC), negative = inhibition": "inactive: 34.9%"}, {"compound": "COc1cccc(C(=O)CSc2nnc(CNc3nc(-c4ccccc4)cs3)n2C)c1", "activity change (PNC), negative = inhibition": "inconclusive: -30.6%"}, {"compound": "CC(C)(C)OC(=O)NC(CCCCNC=O)C(=O)O", "note": "(stereo not drawn)", "activity change (PNC), negative = inhibition": "inconclusive: -71.6%"}, {"compound": "Cc1nnc(C)c2c(C)n(-c3ccc(Br)cc3)c(C)c12", "activity change (PNC), negative = inhibition": "inconclusive: -55.2%"}, {"compound": "Cc1cccc(C(=O)NC(=S)NNC(=O)Cc2ccccc2)c1", "activity change (PNC), negative = inhibition": "inconclusive: -64.9%"}, {"compound": "Cc1noc(C)c1C(=O)Nc1nc(C23CC4CC(CC(C4)C2)C3)cs1", "activity change (PNC), negative = inhibition": "inconclusive: -38%"}, {"compound": "CCn1c(=O)c(=O)[nH]c2cc(C(=O)N3CCN(c4ccccc4F)CC3)ccc21", "activity change (PNC), negative = inhibition": "inconclusive: -71.7%"}, {"compound": "COc1ccc(N2CCN(C(=O)COc3ccc(Cl)cc3Cl)CC2)cc1", "activity change (PNC), negative = inhibition": "inconclusive: -45.7%"}, {"compound": "Cc1ccnc(SCC(=O)O)n1", "activity change (PNC), negative = inhibition": "inconclusive: -79.2%"}, {"compound": "CC(=O)NC(Cc1cccc(C)c1)C(=O)NC1CCN(C(=O)c2ccc([N+](=O)[O-])cc2)CC1", "note": "(stereo not drawn)", "activity change (PNC), negative = inhibition": "inactive: 41.7%"}, {"compound": "O=C(OCn1cncn1)c1ccc(Cl)cc1Cl", "activity change (PNC), negative = inhibition": "inconclusive: -66.5%"}, {"compound": "CCOc1ccc(NC(=O)c2sc(N3CCOCC3)nc2-c2ccccc2)cc1", "activity change (PNC), negative = inhibition": "inactive: 13.2%"}, {"compound": "Cc1cc(C)n2nc(SCC(=O)N3CCc4ccccc43)nc2n1", "activity change (PNC), negative = inhibition": "inconclusive: -41.3%"}, {"compound": "COc1ccc(/C=N/NC2=NCCCCC2)cc1", "activity change (PNC), negative = inhibition": "inactive: 3.26%"}, {"compound": "CCOC(=O)c1c(C)[nH]c(C(=O)OCC(=O)NC2CCS(=O)(=O)C2)c1C", "note": "(stereo not drawn)", "activity change (PNC), negative = inhibition": "inconclusive: -43.6%"}, {"compound": "O=C(CSc1ncn[nH]1)NCCCc1ccccc1", "activity change (PNC), negative = inhibition": "inconclusive: -49.7%"}, {"compound": "CSc1ccc(/C=C(\\C#N)C(=O)Nc2cccc(C)c2)cc1", "activity change (PNC), negative = inhibition": "inconclusive: -36.3%"}, {"compound": "CCc1ccc(NC(=O)COC(=O)CN2C(=O)COc3ccccc32)cc1", "activity change (PNC), negative = inhibition": "inactive: 26%"}, {"compound": "CCOC(=O)/C(=N\\Nc1cc(C(F)(F)F)ccc1Cl)N(CC)CC", "activity change (PNC), negative = inhibition": "inconclusive: -33.7%"}, {"compound": "CCc1cc(=O)oc2cc(OC(C)C(=O)O)c(Cl)cc12", "note": "(stereo not drawn)", "activity change (PNC), negative = inhibition": "inactive: 19.7%"}, {"compound": "Clc1ccc(-c2nnc(SCc3ccon3)o2)c(Cl)c1", "activity change (PNC), negative = inhibition": "inconclusive: -38.8%"}, {"compound": "CCOc1ccc(N(CC(=O)OC)S(=O)(=O)c2ccc3c(c2)n(C)c(=O)c(=O)n3C)cc1", "activity change (PNC), negative = inhibition": "inconclusive: -35.4%"}, {"compound": "CCOC(=O)c1cc(C(=O)c2cc(F)ccc2O)coc1=N", "activity change (PNC), negative = inhibition": "inconclusive: -69.3%"}, {"compound": "COc1ccc(N2CCN(CC(=O)NC(=O)NCc3ccco3)CC2)cc1", "activity change (PNC), negative = inhibition": "inconclusive: -53.9%"}, {"compound": "COc1ccccc1C(c1nnnn1CC1CCCO1)N1CCC(C(N)=O)CC1", "note": "(stereo not drawn)", "activity change (PNC), negative = inhibition": "active: -100%"}, {"compound": "O=C(Nc1nc2cc(Cl)ccc2s1)C1CCCN(S(=O)(=O)c2cccc3cccnc23)C1", "note": "(stereo not drawn)", "activity change (PNC), negative = inhibition": "inconclusive: -66.4%"}, {"compound": "CCCn1c(-c2cccnc2Cl)nc2cc(Cl)c(Cl)cc21", "activity change (PNC), negative = inhibition": "inconclusive: -51%"}, {"compound": "O=C(Cn1c(=O)oc2cc(S(=O)(=O)N3CCCC3)ccc21)NCc1ccccn1", "activity change (PNC), negative = inhibition": "inconclusive: -39.1%"}, {"compound": "CCOc1ccc(OCc2ccc(C(=O)N3CCCC3)o2)cc1", "activity change (PNC), negative = inhibition": "inactive: 25.6%"}, {"compound": "Cc1ccc(C(=O)N2CCN(c3ccc(NC(=O)c4cccnc4)cc3)CC2)cc1", "activity change (PNC), negative = inhibition": "inconclusive: -61.8%"}, {"compound": "C=CCOc1c(Br)cc(CNc2ccc(NC(=O)CCC)cc2)cc1OCC", "activity change (PNC), negative = inhibition": "inconclusive: -75.9%"}, {"compound": "COc1ccc(CCn2c(SCC(=O)Nc3cc(C)on3)nc3ccsc3c2=O)cc1OC", "activity change (PNC), negative = inhibition": "inconclusive: -61.5%"}, {"compound": "Cc1cccc(N2CCN(c3nnnn3-c3ccccc3)CC2C)c1", "note": "(stereo not drawn)", "activity change (PNC), negative = inhibition": "inconclusive: -68.7%"}, {"compound": "O=c1[nH]c(CN2CCN(C/C=C/c3ccccc3)CC2)nc2ccccc12", "activity change (PNC), negative = inhibition": "inconclusive: -57.7%"}, {"compound": "O=C(CSc1nc2ccccc2o1)NC(=O)NCc1ccco1", "activity change (PNC), negative = inhibition": "inconclusive: -53.8%"}, {"compound": "C=CCn1c(SCn2nnc3ccccc3c2=O)nc2scc(-c3cccs3)c2c1=O", "activity change (PNC), negative = inhibition": "inconclusive: -56.2%"}, {"compound": "O=C(N/N=C/c1cc([N+](=O)[O-])ccc1O)C1CCCCC1", "activity change (PNC), negative = inhibition": "inactive: 48.3%"}, {"compound": "C=CCc1cccc(/C=C/c2cc(=O)c3ccccc3[nH]2)c1O", "activity change (PNC), negative = inhibition": "inconclusive: -43.4%"}, {"compound": "CCOC(=O)C1=C(CN2c3ccccc3CC2C)NC(=O)NC1c1ccccc1", "note": "(stereo not drawn)", "activity change (PNC), negative = inhibition": "inactive: 32.3%"}, {"compound": "CCc1nc(NCCN2CCOCC2)c2oc3ccccc3c2n1", "activity change (PNC), negative = inhibition": "inconclusive: -67.4%"}, {"compound": "COc1ccccc1-c1cc(C2CC2)nc(N)c1C#N", "activity change (PNC), negative = inhibition": "inconclusive: -30.6%"}, {"compound": "CSc1nc2ccc(NS(=O)(=O)c3cccc(Cl)c3Cl)cc2s1", "activity change (PNC), negative = inhibition": "inactive: -29.8%"}]}]}
